Measured values: paper PMC4594993
Results are given in words; binding and its absence hold for the method and conditions named. In cells and extracts the contact can be indirect. A result given as binding can be weak or reduced; the word gives no strength. Where a sequence is shown, tags or fusion partners need not be part of it.

Target: T1, Flotillin-1-eGFP (human) (UniProt O75955)
T1 sequence: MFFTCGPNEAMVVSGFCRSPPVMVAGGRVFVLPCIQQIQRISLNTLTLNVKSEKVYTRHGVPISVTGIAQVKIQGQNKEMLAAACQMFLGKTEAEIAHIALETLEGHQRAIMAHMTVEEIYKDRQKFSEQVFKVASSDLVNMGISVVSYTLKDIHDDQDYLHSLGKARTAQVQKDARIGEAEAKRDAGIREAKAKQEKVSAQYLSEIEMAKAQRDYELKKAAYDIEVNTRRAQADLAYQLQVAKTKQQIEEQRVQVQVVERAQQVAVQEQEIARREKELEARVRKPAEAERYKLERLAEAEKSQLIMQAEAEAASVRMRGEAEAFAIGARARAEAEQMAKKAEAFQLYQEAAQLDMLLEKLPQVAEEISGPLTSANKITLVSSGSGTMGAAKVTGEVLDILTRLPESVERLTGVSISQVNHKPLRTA
Assay: FRET or BRET; FRET imaging in SMMC-7721 cells co-transfected with acceptor (CD147-dsRed1) and donor (Flotillin-1-eGFP); CoA and CoB from single-transfected donor and acceptor samples

## CD147-dsRed1 (pdsRed1-N1-CD147)
  binding: binds
